{
  "source": "patent US12076328B2",
  "about": "(priority 2020, dated 2024)",
  "origin": "cited, not measured here",
  "key": {"[1]": {"test_system": "SARS-CoV", "settings": "Vero cells infected by SARS-CoV (2002 pandemic); cited from earlier work"}, "[2]": {"test_system": "SARS-CoV-2", "settings": "Jeon et al., 2020, expressed as ng/mL; cited from earlier work"}, "[3]": {"test_system": "MERS-CoV", "settings": "cited from earlier work"}, "[4]": {"test_system": "SARS-CoV", "settings": "Wu et al., 2004; cited from earlier work"}},
  "note": "At least one structure is not confirmed: it was looked up by name or label, or the drawing left a doubt.",
  "data": [
    {"smiles": "O=C(Nc1ccc([N+](=O)[O-])cc1Cl)c1cc(Cl)ccc1O", "note": "[niclosamide, 5-Chloro-N-(2-chloro-4-nitrophenyl)salicylamide]", "values": [
      {"measurement": "IC50", "setting": "[1]", "value": "< 100", "unit": "nM"},
      {"measurement": "IC50", "setting": "[2]", "value": 0.09156, "unit": "µg/mL"},
      {"measurement": "inhibited MERS-CoV replication", "setting": "[3]", "value": "more than 1000 fold"},
      {"measurement": "concentrations at which SARS-CoV replication was completely inhibited", "setting": "[4]", "value": "1.56 to 3.12", "unit": "µM"}
    ]}
  ]
}
